The chains behind the UniProt entries cited, without tags or fusion partners. Where a name states a change or a piece, a line headed by the entry shows the natural chain unless it says otherwise.
UniProt Q8N8N0: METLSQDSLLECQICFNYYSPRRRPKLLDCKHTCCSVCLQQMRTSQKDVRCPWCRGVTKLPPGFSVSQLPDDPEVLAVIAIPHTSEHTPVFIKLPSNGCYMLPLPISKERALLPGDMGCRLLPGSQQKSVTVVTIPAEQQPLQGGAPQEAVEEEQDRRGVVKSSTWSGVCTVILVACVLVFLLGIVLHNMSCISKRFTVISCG

According to PMC6355928:

Tests used:
GST-RNF152 [1] = target: GST-RNF152 (UniProt Q8N8N0); assay: pull-down; GST-RNF152 and His-Rheb; Rheb loaded with GDP in advance; both purified
GST-RNF152 [2] = target: GST-RNF152 (UniProt Q8N8N0); assay: pull-down; His-Rheb incubated with 10 ug purified GST or GST-RNF152, glutathione sepharose 4B, bound Rheb detected by Western blotting; both purified

In the case of His-Rheb (from UniProt Q15382 1-184), the binding (GST-RNF152 [1]) is reported as “binds” and the binding (GST-RNF152 [2]) is reported as “binds”.

These are yes or no findings as the source states them, for the method shown. Binding can be weak; no strength is given.
